Source: PubChem BioAssay AID686943 (Drosophila RNAi Screening Center, 2013)
Test: 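Fly genes whose loss alters ERK activation after insulin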 (primary screen). System: Drosophila S2R+ haemocyte-like cells expressing YFP-tagged ERK (Rolled). Reagents: long dsRNA against Drosophila genes. Challenge: insulin stimulation versus unstimulated cells; dose and duration not given. Read-out: 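Per-plate z-scores of phospho-ERK immunostaining normalised to YFP-tagged ERK, measured with and without insulin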. Reading the numbers: replicate 1, z-score of dpERK with insulin: higher = more active ERK per ERK-YFP after insulin.
The screen tested about 23,000 reagents; shown is a random part of those that have a named target and a result. 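Extra replicates exist only for a retested subset of genes; insulin dose and duration not given; both raised and lowered dpERK matter.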 The numbers tell different reagents against one gene apart. A plus sign joins genes that one reagent is predicted to hit. Not all columns of the deposit are shown. Reagent sequences are not shown. Not stated in the record: the amount of reagent, the time to read-out.

replicate 1, z-score of dpERK with insulin, by target and reagent
Ir75a (Ionotropic receptor 75a): #1 0.17
Cpr62Bb (Cuticular protein 62Bb): #1 0.08
mod(mdg4) + pre-mod(mdg4)-U: #1 -2.49
CG13010: #1 -1.3
CG5339: #1 0.61
Prosbeta7 (Proteasome beta7 subunit): #1 -3.96
CG9628: #1 0.88
gro (groucho): #1 -1.32
Dmtn (Dementin): #1 0.19
CG10793: #1 0.08
CG5565: #1 -1.13
CG12729: #1 0.84
CG9705: #1 0.63
Nufip: #1 -0.05
CG10584: #1 0.27
Dcr-1 (Dicer-1): #1 -0.26
NijA (Ninjurin A): #1 -1.13
Gyc76C + CG42637: #1 -0.72
CG43095: #1 -1.54
ATPsynF (ATP synthase, subunit F): #1 -0.17
CG13386: #1 0.2
Nha2 (Na[+]/H[+] hydrogen antiporter 2): #1 0.52; #2 -1.85; #3 0.32

Not a retest: an excerpt of the list.
replicate 1, z-score of dpERK with insulin, by target and reagent
CG10793: #1 0.08
CG5565: #1 -1.13
CG12729: #1 0.84
CG9705: #1 0.63
